Results on two substances are retold here after publication doi:10.1101/723247.

Sequences of proteins named here, by UniProt entry; tags and fusion partners are left off.
UniProt P23678: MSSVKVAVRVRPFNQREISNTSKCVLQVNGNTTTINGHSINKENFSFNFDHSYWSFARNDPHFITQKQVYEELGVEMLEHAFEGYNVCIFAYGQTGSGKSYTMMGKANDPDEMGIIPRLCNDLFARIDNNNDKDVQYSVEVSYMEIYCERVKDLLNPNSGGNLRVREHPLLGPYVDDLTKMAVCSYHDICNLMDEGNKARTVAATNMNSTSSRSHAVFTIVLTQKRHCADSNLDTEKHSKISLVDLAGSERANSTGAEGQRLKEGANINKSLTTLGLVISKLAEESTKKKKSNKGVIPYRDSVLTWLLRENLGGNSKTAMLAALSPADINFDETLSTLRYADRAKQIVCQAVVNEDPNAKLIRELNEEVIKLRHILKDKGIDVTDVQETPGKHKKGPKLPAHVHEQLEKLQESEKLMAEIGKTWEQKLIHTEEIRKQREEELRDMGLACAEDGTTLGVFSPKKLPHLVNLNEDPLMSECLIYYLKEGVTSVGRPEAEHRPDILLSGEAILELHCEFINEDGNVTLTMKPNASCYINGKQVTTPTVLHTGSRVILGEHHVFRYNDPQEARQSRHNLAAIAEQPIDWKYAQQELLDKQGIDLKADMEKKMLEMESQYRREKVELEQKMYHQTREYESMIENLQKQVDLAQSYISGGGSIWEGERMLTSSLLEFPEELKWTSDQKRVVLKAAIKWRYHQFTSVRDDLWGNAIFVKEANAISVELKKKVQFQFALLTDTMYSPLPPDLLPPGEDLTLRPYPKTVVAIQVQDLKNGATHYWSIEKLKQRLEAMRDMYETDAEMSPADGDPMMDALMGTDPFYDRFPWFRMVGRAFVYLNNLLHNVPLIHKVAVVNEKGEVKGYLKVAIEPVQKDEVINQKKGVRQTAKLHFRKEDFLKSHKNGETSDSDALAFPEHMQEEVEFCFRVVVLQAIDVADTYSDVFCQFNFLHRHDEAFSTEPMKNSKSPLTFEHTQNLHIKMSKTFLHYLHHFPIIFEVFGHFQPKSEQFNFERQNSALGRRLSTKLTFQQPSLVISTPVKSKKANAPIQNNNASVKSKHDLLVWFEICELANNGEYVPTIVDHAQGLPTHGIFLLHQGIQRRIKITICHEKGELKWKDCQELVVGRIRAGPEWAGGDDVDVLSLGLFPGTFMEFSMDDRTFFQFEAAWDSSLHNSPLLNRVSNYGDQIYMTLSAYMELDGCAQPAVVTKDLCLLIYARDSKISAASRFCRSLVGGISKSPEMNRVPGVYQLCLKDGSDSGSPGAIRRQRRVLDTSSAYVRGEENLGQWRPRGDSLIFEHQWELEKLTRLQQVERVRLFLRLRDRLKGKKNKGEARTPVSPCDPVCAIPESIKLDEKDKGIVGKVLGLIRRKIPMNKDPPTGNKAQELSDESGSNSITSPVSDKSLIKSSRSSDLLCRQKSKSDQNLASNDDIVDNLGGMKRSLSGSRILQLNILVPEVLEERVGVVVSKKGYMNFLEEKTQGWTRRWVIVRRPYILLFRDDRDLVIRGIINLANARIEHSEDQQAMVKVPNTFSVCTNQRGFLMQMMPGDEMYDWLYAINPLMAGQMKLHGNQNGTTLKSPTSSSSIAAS
UniProt Q21049: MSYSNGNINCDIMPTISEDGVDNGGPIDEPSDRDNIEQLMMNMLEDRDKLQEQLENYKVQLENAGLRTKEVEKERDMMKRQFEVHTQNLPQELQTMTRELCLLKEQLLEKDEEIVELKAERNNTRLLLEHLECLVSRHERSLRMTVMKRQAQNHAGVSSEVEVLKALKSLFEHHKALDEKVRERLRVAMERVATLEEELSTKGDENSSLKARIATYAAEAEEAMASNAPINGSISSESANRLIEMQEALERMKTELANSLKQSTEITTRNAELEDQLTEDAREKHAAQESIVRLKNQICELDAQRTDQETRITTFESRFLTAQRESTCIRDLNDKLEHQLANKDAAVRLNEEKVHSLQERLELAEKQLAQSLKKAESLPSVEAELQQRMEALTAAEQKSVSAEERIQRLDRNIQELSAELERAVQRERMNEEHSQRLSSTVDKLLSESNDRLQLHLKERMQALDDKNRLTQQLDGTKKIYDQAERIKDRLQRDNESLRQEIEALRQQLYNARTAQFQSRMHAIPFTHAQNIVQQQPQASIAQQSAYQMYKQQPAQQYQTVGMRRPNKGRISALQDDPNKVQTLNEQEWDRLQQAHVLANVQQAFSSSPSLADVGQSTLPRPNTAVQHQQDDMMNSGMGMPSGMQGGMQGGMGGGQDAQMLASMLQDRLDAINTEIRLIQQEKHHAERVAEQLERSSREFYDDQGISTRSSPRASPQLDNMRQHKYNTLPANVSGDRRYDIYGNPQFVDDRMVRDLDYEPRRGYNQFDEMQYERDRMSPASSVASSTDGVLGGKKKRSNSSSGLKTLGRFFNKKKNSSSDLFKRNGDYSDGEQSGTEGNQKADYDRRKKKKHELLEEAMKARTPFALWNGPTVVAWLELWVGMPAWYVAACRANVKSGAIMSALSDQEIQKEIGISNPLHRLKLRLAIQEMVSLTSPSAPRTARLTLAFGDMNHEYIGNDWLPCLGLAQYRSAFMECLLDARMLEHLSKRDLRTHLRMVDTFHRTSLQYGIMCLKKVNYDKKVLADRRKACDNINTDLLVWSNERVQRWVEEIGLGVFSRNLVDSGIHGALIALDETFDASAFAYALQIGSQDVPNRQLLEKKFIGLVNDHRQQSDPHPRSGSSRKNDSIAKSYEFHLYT

Assay [1] concerns the target UNC-104::mRFP (C. elegans) (UniProt P23678). The assay is described as follows: co-IP.
Assay [2] addresses UNC-104::VC155 (C. elegans) (UniProt P23678). The assay is described as follows: split reporter.

These are yes or no findings as the source states them, for the method shown. In cells and extracts the contact can be indirect. Some results given as binding are weak or reduced against the parent protein; the word gives no strength.

Take SYD-2 (from UniProt Q21049 1-1139): the binding entry in assay [1] is recorded as “binds”.
On to “VN173::SYD-2 (from UniProt Q21049 1-1139)”, for which the binding result in assay [2] is given as “binds”.
